# Library screen at single concentrations

Chains of the proteins cited; added tags and fusions are not shown. Residues count along the entry.
UniProt Q8IDJ8, 1-583: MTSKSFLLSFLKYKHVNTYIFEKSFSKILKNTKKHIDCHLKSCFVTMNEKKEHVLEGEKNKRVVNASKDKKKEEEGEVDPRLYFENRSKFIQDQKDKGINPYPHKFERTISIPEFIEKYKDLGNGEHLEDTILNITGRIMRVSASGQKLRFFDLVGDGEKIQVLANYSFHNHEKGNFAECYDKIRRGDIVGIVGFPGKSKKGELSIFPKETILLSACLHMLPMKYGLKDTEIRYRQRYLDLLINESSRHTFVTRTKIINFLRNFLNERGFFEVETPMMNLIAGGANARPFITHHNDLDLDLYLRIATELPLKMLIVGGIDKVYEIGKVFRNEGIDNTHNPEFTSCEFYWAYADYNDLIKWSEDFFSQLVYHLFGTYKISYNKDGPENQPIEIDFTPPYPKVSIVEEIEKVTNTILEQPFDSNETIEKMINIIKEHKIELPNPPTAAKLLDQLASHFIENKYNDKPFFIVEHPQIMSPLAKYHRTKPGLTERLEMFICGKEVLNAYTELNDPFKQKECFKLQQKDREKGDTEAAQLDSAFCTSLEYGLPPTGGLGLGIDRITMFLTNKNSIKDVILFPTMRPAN
UniProt I6X8D2, whole entry: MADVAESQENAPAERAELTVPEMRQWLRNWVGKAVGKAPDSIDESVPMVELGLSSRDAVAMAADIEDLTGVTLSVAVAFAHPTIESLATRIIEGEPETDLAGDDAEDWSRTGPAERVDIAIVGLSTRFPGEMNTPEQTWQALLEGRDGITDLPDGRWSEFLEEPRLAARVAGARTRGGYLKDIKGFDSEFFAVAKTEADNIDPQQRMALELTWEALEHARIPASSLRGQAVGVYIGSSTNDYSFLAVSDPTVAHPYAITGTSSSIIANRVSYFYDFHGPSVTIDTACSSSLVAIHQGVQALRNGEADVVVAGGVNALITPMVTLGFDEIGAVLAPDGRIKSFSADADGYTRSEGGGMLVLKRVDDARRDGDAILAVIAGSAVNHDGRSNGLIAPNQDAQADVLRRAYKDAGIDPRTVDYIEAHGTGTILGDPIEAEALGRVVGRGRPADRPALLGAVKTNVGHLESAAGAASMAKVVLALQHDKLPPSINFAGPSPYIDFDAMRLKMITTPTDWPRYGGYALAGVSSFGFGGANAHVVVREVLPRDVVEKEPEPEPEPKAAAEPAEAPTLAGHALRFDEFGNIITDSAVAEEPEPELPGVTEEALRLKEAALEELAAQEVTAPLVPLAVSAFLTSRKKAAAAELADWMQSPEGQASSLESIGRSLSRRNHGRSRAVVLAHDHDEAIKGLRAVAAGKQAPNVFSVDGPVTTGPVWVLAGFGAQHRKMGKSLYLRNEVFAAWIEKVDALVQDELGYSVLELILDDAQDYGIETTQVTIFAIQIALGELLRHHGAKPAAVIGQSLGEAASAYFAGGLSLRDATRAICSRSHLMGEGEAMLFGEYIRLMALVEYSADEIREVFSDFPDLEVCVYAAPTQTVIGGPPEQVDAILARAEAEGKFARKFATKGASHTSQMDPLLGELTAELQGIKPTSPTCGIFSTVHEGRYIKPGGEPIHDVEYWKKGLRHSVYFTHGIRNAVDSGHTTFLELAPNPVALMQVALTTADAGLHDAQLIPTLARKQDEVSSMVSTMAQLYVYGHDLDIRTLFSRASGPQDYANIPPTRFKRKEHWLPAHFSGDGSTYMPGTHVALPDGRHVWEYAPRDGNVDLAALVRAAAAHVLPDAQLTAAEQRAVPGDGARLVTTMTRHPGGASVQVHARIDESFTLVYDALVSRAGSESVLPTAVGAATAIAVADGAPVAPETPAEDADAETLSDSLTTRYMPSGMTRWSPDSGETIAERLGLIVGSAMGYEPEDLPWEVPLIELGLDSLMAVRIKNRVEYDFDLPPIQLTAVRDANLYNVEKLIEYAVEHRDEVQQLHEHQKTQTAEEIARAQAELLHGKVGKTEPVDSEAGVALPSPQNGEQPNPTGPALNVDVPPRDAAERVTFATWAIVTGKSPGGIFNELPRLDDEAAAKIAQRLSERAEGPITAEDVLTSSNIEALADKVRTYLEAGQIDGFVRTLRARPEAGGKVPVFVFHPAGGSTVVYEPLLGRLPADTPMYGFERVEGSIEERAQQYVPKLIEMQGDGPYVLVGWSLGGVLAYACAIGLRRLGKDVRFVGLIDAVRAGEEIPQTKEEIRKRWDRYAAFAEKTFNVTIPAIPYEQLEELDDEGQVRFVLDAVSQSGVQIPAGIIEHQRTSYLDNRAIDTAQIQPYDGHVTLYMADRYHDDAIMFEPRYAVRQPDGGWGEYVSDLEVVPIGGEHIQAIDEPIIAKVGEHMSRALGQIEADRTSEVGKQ
UniProt P9WPC5, whole entry: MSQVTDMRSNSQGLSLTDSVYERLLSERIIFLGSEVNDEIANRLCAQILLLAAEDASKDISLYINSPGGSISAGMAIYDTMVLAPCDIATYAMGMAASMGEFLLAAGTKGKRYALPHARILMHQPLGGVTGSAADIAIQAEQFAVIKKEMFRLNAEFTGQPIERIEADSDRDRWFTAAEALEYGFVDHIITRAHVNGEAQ
UniProt P9WPC3, whole entry partner: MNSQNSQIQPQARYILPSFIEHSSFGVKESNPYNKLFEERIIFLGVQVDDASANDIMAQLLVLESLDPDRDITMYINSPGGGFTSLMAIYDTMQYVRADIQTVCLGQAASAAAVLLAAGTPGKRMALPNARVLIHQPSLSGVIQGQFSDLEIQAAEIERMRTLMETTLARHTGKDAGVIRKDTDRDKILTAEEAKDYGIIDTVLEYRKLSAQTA

The filed quantity is “Percent Effect” (%).
How 0% and 100% were set is not recorded. Most values in the screen are low, and negative values occur.
This is an unselected part of the compounds tested.
A dash means the value is not listed here; it may have been measured.

A: 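Enzyme assay of the cytosolic lysyl-tRNA synthetase in 384-well plates, read by luminescence. Target: Lysine-tRNA ligase, Plasmodium falciparum 3D7 (UniProt Q8IDJ8). Tested at 30 µM. Higher reads as stronger inhibition, judged from the few compounds that gave an IC50. About 69,000 compounds were tested under these conditions; 0.071% (about 49) showed 50% or more at least once.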
B: 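Polyketide synthase Pks13, Mycobacterium tuberculosis (UniProt I6X8D2). Enzyme assay of the thioesterase domain of polyketide synthase 13; the read-out is not stated. Tested at 30 µM. The record gives no direction; the compounds picked for IC50 retests had high values, so higher reads as stronger inhibition. About 67,000 compounds were tested under these conditions; 0.46% (about 300) showed 50% or more at least once.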
C: 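Protease assay of ClpP1P2, read by the AMC dye that it sets free. Target: ClpP1P2, Mycobacterium tuberculosis (UniProt P9WPC5 and UniProt P9WPC3). Concentration: 50 µM. Direction is inferred from only a few compounds that gave an IC50; most scored high, so higher reads as stronger inhibition. Most other retested compounds had strongly negative values. Of about 69,000 compounds tested this way, about 10 (0.015%) reached 50% or more in at least one test.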

SMILES,A,B,C
CCc1nc(CN2CCOC(Cn3nc(C)cc3C)C2)no1 (centres unmarked),-2.546,-18.01,-12.39
CN1CCN(S(=O)(=O)c2cccc(C#N)c2)c2ccc(F)cc21,-0.5417,6.086,-0.6931
Cc1cnn(C2CCCN(C(=O)c3ccn(C)c(=O)c3)C2)c1 (centres unmarked),1.3,-7.93,-5.129
Cc1cc(C)c2[nH]c(=O)c(CN3CCC(O)(CN(C)C)C3)cc2c1 (centres unmarked),6.172,-32.55,-5.257
CNc1cc(C)nc(N2CCC3(CC2)[C@H](O)C[C@@H]3OCCO)n1,9.044,-3.23,-6.318
CN1CCN(c2ncnc3c2CCN(C(=O)c2cccn2C)CC3)CC1,-3.982,-1.927,-1.173
Cc1ccc(CNC(=O)N2CCOCC2C2CC2)cc1F (centres unmarked),5.823,-12.62,-1.765
COc1ccccc1OC1CN(C(=O)c2ccccc2C(C)=O)C1,2.224,-3.987,-11.4
CCCN1Cc2nc(N3CCCC3)ncc2C1=O,4.746,4.687,-24.31
Cc1cc(C)c(C)c(OCCCNC(=O)NC(C)c2nncn2C)c1 (centres unmarked),-4.302,-3.579,-3.732
Cc1ccncc1C(=O)N1CCCC(C(=O)CCc2ccccc2)C1 (centres unmarked),-3.683,-6.892,-5.296
CCN(CC)C(=O)CCn1ncc2c(Cl)cccc21,8.222,-13.04,-11.34
CCNC(=O)N1C[C@@H]2OCC(=O)N(CC3CC3)[C@@H]2C1,2.749,-31.65,-3.733
O=C1CCC(C(=O)Nc2ccc(=O)n(Cc3ccccc3Cl)c2)N1 (centres unmarked),10.72,7.71,-9.249
CC(C)CCNC(=O)CCc1ccnc2ccccc12,2.388,-,-2.375
CCN(CC)c1ccc(NC(=O)NCC2(C(N)=O)CCOCC2)cn1,3.602,0.9734,1.868
COCC(=O)NC1CCCN(c2ccc(C)cc2)C1=O (centres unmarked),-1.243,-12.27,7.705
Cc1n[nH]c(C2CN(C(=O)c3csnn3)CCO2)n1 (centres unmarked),0.5554,-18.31,-17.88
CNC(=O)NC(=O)C(C)N1CCCc2cc(OC)ccc2C1 (centres unmarked),3.628,-44,-2.825
Cn1ccc(-c2cc(C(=O)N3CCC(C(N)=O)CC3)c3ccccn23)n1,3.262,-2.179,-222.6
Cc1ccc(N2CCC3(CCCN3Cc3ccn(C)n3)CC2)nn1,-2.686,-24.31,4.302
CCNC(=O)[C@@H]1C[C@H](NC(=O)Cc2ccsc2)CN1Cc1ccc(C)o1,5.492,-6.432,-7.164
CCc1nc(CN(C(C)=O)C2CCN(CCc3ccccn3)C2)no1 (centres unmarked),0.2368,-,-8.565
Cn1cc(CN2CCCCC2c2ccc(-c3cnn(C)c3)nc2)cn1 (centres unmarked),-0.5256,-2.733,-2.857
CC(C)(C)OC(=O)N1CCN(S(C)(=O)=O)C2(CCCCC2)C1,-6.086,-14.59,-7.643
c1ccc(O[C@H]2CC[C@H]3[C@H]2OCCN3Cc2nccs2)nc1,-1.072,-17.43,-13.61
OC(COCc1ccccc1Cl)CN1CC(n2cccn2)C1 (centres unmarked),7.07,-1.213,26.08
Cc1cccc(S(=O)(=O)NC(=O)CN(C)Cc2ccccc2)c1,6.439,6.103,-19.74
CCc1c(O)nc2nc(N3CCCC3)nn2c1C,7.422,-24.71,-11.26
Cc1nocc1C(=O)N1CCCC2(CCN(c3ccsc3)C2=O)C1 (centres unmarked),3.26,-22.07,-4.823
Cc1cnc2[nH]c(C(F)(F)F)c(CN3CCCC(CO)C3)c2c1 (centres unmarked),-0.1574,-2.409,-32.31
COc1ccc2c(ccn2CC(=O)NC[C@@H]2CCCN3CCCC[C@H]23)c1,3.562,-14.75,-8.007
CC(C)[C@H]1CN(Cc2nccn2C)C[C@@H]1NC(=O)COCC(N)=O,4.333,-2.939,-12.39
NC(=O)CSCCC(=O)NCC1CC1,2.018,-8.332,28.48
Cc1ccc2nc(C(=O)N3CCC(CCn4cccn4)CC3)cn2c1,0.5464,3.914,-6.013
O=C1NCCCCC1NC(=O)C1(c2ccccc2)CCOCC1 (centres unmarked),3.077,-16.39,-15
O=C1Nc2ccccc2C12CCN(Cc1ccccn1)CC2,7.864,-22,3.642
CC(C)c1nc(C2CCCNC2)no1 (centres unmarked),-1.804,-23.22,-12.35
C[C@@H](O)[C@H](NC(=O)c1csc2nc(-c3ccccc3F)cn12)C(N)=O,0.7252,-2.442,-7.422
O=C([C@@H]1COC[C@H]2CN(C3CCOCC3)C[C@H]21)N1CCCO1,-4.732,35.85,5.736
CSCCC(=O)N1CCCCC1CCn1cccn1 (centres unmarked),2.611,-40.84,-0.204
O=C1CC2(CCN(CC3CC3)C2)CN1c1cccc(F)c1 (centres unmarked),1.656,-13.73,6.668
COCc1noc(-c2ccc(N(C)Cc3cc(C)no3)nc2)n1,-2.012,-8.229,-13.36
CC(=O)c1ccc(OCC(=O)NS(=O)(=O)c2ccc(C)s2)cc1,-0.513,-6.956,-3.026
CCc1csc(C2CCCN(C(=O)c3ccnc(N(C)C)c3)C2)n1 (centres unmarked),1.196,-24.97,5.06
COc1ccccc1C1CCN(C(=O)CN2C(=O)OC(C)(C)C2=O)CC1,5.968,-8.194,-8.079
COCCN1CCC(CN(C)c2ncnc3c2c(C)nn3C)C1 (centres unmarked),-2.207,-0.8217,-3.763
Cc1cnn(CC(C)NCc2nc(-c3ccsc3)oc2C)c1 (centres unmarked),-0.5987,-,-7.659
Cc1nnc(NCC(c2ccco2)N(C)C)c(C#N)c1C (centres unmarked),7.367,-4.704,8.932
COc1ccc(-n2nc(C(C)C)nc2Cn2cncn2)cc1,2.816,-23.25,0.9924
CC(C)Cc1nc(CNCc2cccc(N3CCCC3=O)c2)no1,1.612,3.078,-7.37
CN1CCCCC[C@@H]2[C@@H]1[C@H](c1ccccc1)CN2C(=O)c1ccccn1,4.111,-5.626,-0.402
CCC(NC(=O)c1cc(NC(C)=O)ccc1Cl)c1cc(C)ccn1 (centres unmarked),2.604,1.22,-2.759
Nc1ncc(C(=O)N2CCN(c3nccs3)CC2)cc1Cl,2.393,-17.94,-13.5
CC(C)NC(=O)N1CCCn2cnc(CO)c2C1,2.237,-6.161,-6.671
NC(=O)NC(=O)CCN1CCCC1c1nc(C2CCCCC2)co1 (centres unmarked),-0.6972,2.963,2.77
O=C(CCCOc1ccc(F)cc1F)N1CCCC1Cn1cccn1 (centres unmarked),1.508,-18.18,3.209
O=C(C(c1ccccc1)S(=O)(=O)c1ccccc1)N1CCCCC1 (centres unmarked),3.136,-16.09,-12.84
O=C(C1CCCC1)N1CCO[C@H]2[C@H](OCC3CCOCC3)CC[C@@H]21,-8.415,10.39,-4.562
CCN(CC)C(=O)c1ccc(Cl)c(NC(=O)c2cnc(C)cn2)c1,2.445,-12.56,-4.317
CC(=O)NCCC1CCCCN1S(=O)(=O)c1cccc(C#N)c1 (centres unmarked),1.246,-12.95,-0.7843
CCc1nc(CN2CCCN(C(=O)C3CCOCC3)CC2)cs1,1.943,-3.61,0.427
CC(C)(C)c1nc2cc(NC(=O)Cn3ccc(=O)[nH]c3=O)ccc2o1,5.89,-2.204,-1.818
CN1CCC(Oc2ccc(-n3ccnc3-c3ccncc3)cc2)CC1,3.097,-9.054,0.7038
CCN(CCCc1ccccc1)CC1(C)Cc2c(N)nc(N)nc2O1 (centres unmarked),0.4411,-8.23,27.5
Cc1noc(C)c1CN1CC[C@@H]2O[C@H](COCC3CC3)CC[C@@H]21,0.8881,-,-9.383
Fc1ccc(CN2CCCC3(COCCN(Cc4c[nH]nn4)C3)C2)cc1 (centres unmarked),5.676,-76.59,-5.588
CN(C)C(=O)[C@H]1C[C@H]2OCC[C@H]2N(Cc2ccc3c(c2)OCO3)C1,1.44,-20.05,4.602
CN(C)C(=O)CN1CCCCC1c1nc(N)ncc1-c1cccc(F)c1 (centres unmarked),-0.9414,-20.41,13
COC(=O)c1c(Cl)c(C)nc2onc(C)c12,2.013,-13.57,-10.46
CN1CCC(NC(=O)Nc2ccc(F)c(-n3cccc3)c2)C1=O (centres unmarked),4.644,-31.74,-1.034
O=C(N1CCC(Oc2ccncc2)C1)C1(c2cccc(F)c2)CC1 (centres unmarked),-1.099,-22.84,-6.863
Cc1ccc(N2CCC(C3CCN(CC(C)C)CC3)C2)nn1 (centres unmarked),0.8891,-25.03,-30.6

Measurements from “University of Dundee, Small-Polar-MMV Screening Library” (2021), ChEMBL document CHEMBL3988442.